These results are taken from article PMC8532385.

Protein sequences, listed by entry. Tags and fused reporters are not part of them.
UniProt O00429: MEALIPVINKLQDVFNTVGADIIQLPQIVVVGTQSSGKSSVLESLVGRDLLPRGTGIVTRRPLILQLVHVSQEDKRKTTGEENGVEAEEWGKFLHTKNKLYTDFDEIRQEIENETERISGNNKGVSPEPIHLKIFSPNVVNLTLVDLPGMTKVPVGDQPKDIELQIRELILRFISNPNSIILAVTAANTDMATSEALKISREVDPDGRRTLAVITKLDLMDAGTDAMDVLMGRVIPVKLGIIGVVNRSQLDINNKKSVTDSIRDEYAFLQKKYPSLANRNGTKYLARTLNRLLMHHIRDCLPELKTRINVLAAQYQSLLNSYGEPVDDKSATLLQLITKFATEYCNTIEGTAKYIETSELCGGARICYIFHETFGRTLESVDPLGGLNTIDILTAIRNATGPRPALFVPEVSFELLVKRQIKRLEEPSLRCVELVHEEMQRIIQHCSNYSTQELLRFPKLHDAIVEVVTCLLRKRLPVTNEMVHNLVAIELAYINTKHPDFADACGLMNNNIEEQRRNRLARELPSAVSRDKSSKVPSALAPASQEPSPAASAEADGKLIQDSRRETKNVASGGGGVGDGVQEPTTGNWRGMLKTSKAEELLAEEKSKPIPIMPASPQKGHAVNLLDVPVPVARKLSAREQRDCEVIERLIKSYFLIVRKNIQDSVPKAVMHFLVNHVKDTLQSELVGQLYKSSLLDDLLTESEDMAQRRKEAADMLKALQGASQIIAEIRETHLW

Results are given in words; binding and its absence hold for the method and conditions named. In cells and extracts the contact can be indirect. Sequences can lack the tags named with a protein.

Assay [1] deals with T1, MIEF1^Δ160-169-V5 (Drp1 binding-deficient mutant) (human) (UniProt Q9NQG6).
T1 sequence: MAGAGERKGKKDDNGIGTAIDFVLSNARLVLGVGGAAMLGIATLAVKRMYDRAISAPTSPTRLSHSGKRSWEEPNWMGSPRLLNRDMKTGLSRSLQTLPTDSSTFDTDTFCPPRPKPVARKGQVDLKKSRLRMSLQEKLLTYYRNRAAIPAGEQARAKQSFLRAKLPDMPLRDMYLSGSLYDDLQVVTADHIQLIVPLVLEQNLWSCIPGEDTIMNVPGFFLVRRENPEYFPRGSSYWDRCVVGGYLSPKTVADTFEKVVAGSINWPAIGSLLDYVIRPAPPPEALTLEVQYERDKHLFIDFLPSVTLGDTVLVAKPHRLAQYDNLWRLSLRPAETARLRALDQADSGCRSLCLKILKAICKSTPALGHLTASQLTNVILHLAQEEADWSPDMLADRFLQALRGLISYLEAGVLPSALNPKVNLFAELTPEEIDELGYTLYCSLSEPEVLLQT
The assay can be described thus: co-IP; 293T cells transfected with MIEF1-V5, MIEF1^Δ160-169-V5, MIEF2-V5 or MIEF2^Δ151-160-V5; anti-V5 beads; Western blot (Fig. 5b); crosslinking not mentioned.

The target of assay [2] is T2, MIEF2^Δ151-160-V5 (Drp1 binding-deficient mutant) (human) (UniProt Q96C03).
T2 sequence: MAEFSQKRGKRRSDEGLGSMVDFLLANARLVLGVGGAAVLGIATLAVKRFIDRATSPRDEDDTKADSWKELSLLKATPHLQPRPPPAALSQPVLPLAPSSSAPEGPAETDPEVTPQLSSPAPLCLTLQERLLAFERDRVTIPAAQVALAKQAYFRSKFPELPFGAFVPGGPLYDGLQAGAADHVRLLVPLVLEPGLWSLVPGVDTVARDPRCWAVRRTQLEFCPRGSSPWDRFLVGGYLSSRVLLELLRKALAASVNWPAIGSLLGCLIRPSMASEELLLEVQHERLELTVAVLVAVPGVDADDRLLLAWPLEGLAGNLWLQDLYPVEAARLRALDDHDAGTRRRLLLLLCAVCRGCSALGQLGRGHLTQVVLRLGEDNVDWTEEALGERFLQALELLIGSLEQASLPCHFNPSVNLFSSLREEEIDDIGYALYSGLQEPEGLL
Described as above.

For “dynamin-related protein 1 (Drp1), endogenous (from UniProt O00429 1-736)”, the binding entry in assay [1] and in assay [2] was “no binding” throughout.
